Assay results as given in PubChem BioAssay AID602313 (National Center for Advancing Translational Sciences (NCATS), 2012).
Screen size: about 390,000 compounds; about 760 (0.19%) were called active. The shares of active, inactive and inconclusive entries below differ from those in the screen. Calls come from the whole dose curve; as a rule, active = well fitted inhibition curve with a large enough effect; inconclusive = small, poorly fitted or top-dose-only effect; inactive = flat fitted curve, though single readings scatter. Potencies beside an inconclusive call are fits to weak or partial responses and may not hold up.

assay: qHTS for Inhibitors of Vif-A3F Interactions: qHTS; details: HeLa A3F-eYFP + Vif (tagged APOBEC3F with the HIV-1 protein that degrades it), YFP fluorescence increase; series mostly up to 46.1 µM; activity, negative = active: at the top concentration; note: nearly all actives have a fitted effect of over 65% in size; for activity, negative = active: % of control where 0% means no effect
How it was run: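 Fluorescence increase (Ex 488/Em 500-530) after overnight compound treatment at 37 deg C flags inhibition of Vif-driven A3F-eYFP loss in stable HeLa A3F-eYFP/Vif cells seeded overnight beforehand.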
Potency is the fitted concentration of half-maximal effect.

SMILES | Potency | activity, negative = active
CCc1nnc(NC(=O)c2nc(SCc3ccc(F)cc3)ncc2Cl)s1 | inconclusive: 17.8 µM [inhibitor, single point] | 
COc1ccc(CNS(=O)(=O)c2ccc(S(=O)(=O)NC3CC3)cc2)cc1 | inconclusive: 35.5 µM [inhibitor, single point] | 
Cc1ccc(/C=C/C(=O)N2CC(C)CC(C)C2)o1 (stereo unspecified) | inconclusive: 11.2 µM [inhibitor, partial curve, poor fit] | 
O=C(NCCC1=CCCCC1)C1CCC(CNc2nc(=S)[nH]c3ccccc23)CC1 (stereo unspecified) | inconclusive: 11.2 µM [inhibitor, partial curve] | 
CCC12CCCN3CCc4c(n(c5ccccc45)C(O)(C(=O)OC)C1)C32 (stereo unspecified) | inconclusive: 11.2 µM [inhibitor, partial curve, poor fit] | 
COc1ccc(C2C(C#N)=C(N)N(N(C)C)C3=C2C(=O)CCC3)cc1 (stereo unspecified) | inconclusive: 20 µM [inhibitor, single point] | 
Cc1cc(SCC(=O)c2cccs2)nc2ccccc12 | active: 11.2 µM | 
O=C(N/N=C/c1ccccc1OC(F)F)c1cc(-c2ccncc2)nc2ccccc12 | inconclusive: 11.2 µM [inhibitor, single point] | 
COc1ccc(-n2sc3c(c2=S)-c2cc(OC)ccc2NC3(C)C)cc1 |  | inactive: 1.95%
CCOC(=O)N1CCN(c2nc(=S)n(-c3ccccc3)c(C)c2C(C)=O)CC1 |  | inactive: -2.67%
CCOC(=O)c1cc(-c2ccccc2)n(CC(=O)Nc2cc(Cl)c(OC)cc2OC)c1C | inconclusive: 7.08 µM [inhibitor, partial curve, poor fit] | 
C=C(C)CN(CC)C(=O)Cn1cnc2c(oc3ccccc32)c1=O | inconclusive: 2.82 µM [inhibitor, single point] | 
CC[C@@]1(c2ccccc2OC)C(=O)N(C(=O)OC)N1C(=O)OC |  | inactive: -1.57%
CC(C)Oc1ccc(Br)cc1C(=O)N/N=C/c1c[nH]c2ccccc12 | inconclusive: 22.4 µM [inhibitor, single point] | 
CCOC(=O)Cn1c(=NC(=O)c2cc(-c3cccs3)nc3ccccc23)sc2cc(S(N)(=O)=O)ccc21 | inconclusive: 25.1 µM [inhibitor, single point] | 
Cc1cc(SCC(=O)OC/C(O)=C(\C#N)c2nc3ccccc3[nH]2)c(C)cc1Br | inconclusive: 25.1 µM [inhibitor, single point] | 
CCOC(=O)N1CCN(c2cc(=O)n(C)c(=O)n2C)CC1 |  | inactive: -1.48%
CCC1(C)Cc2c(sc3nnn(CC(=O)Nc4ccc(C)cc4)c(=O)c23)CO1 (stereo unspecified) |  | inactive: -6.59%
CN(CC(=O)Nc1ccccc1Cl)C(=O)c1cc2c(s1)CCCCC2 | inconclusive: 6.31 µM [inhibitor, partial curve, poor fit] | 
Cc1cc(=O)n(-c2ccc3ccccc3n2)[nH]1 | inconclusive: 35.5 µM [inhibitor, partial curve, poor fit] | 
CC(C)(CNS(=O)(=O)c1ccc2ccccc2c1)N1CCOCC1 | inconclusive: 2.82 µM [inhibitor, partial curve, poor fit] | 
C/C(=N\NC(=S)Nc1cccc(C)c1)c1ccco1 | inconclusive: 5.62 µM [inhibitor, single point] | 

SMILES | Potency | activity, negative = active
COc1ccc(-c2c(C#Cc3ccc(N(C)C)cc3)c3ccccc3n2C)cc1 |  | inactive: -4.39%
COc1cc(-c2[nH]nc3c2C(c2ccoc2)C(C#N)=C(N)O3)cc(OC)c1OC (stereo unspecified) |  | inactive: -8.08%
CN(Cc1ccccn1)C(=O)CC1C(=O)NCCN1Cc1ccc(F)cc1Cl (stereo unspecified) | inconclusive: 3.16 µM [inhibitor, single point] | 
CCOC(=O)CSc1nc(-c2ccc(OC)cc2)cc(C(F)(F)F)c1C#N | inconclusive: 11.2 µM [inhibitor, partial curve, poor fit] | 
CCOCCCN1CC(C(=O)NCCc2ccc(C)cc2)CC1=O (stereo unspecified) | inconclusive: 5.62 µM [inhibitor, single point] | 
O=S(=O)(Nc1nc2ccccc2nc1N1CCc2ccccc2C1)c1ccc(Br)cc1 | active: 22.4 µM | 
O=C(COc1cccnc1[N+](=O)[O-])Nc1ncc(Cl)cc1Cl |  | inactive: 3.73%
O=C(Cn1nc2c(cc1=O)CCCC2)NCc1ccccc1 | inconclusive: 6.31 µM [inhibitor, partial curve, poor fit] | 
NNc1nc2c(-c3ccc(Cl)cc3)nnn2c2ccccc12 | inconclusive: 31.6 µM [inhibitor, single point] | 
COC(=O)N1CCc2c(sc(NC(=O)C3=COCCO3)c2C#N)C1 | inconclusive: 14.1 µM [inhibitor, partial curve, poor fit] | 
O=C(O)CCCC(=O)Nc1ccccc1SCCS(=O)(=O)c1ccc(Cl)cc1 | inconclusive: 35.5 µM [inhibitor, single point] | 
C=CCOc1cccc(C(=O)NC(c2ccccc2)C(C)C)c1 (stereo unspecified) | inconclusive: 0.562 µM [inhibitor, partial curve, poor fit] | 
COc1ccc2c(c1)CC(C)C/C2=N\NC(=O)c1ccco1 (stereo unspecified) | inconclusive: 35.5 µM [inhibitor, partial curve, poor fit] | 
CCCOc1ccc(C(=O)NNC(=S)NC(=O)c2ccccc2)cc1 |  | inactive: -9.42%
O=C1Nc2ccc(S(=O)(=O)NCc3ccccn3)c3cccc1c23 |  | inactive: -15.3%
Cc1ccc(N2CCN(S(=O)(=O)c3cc(C(=O)Nc4cc(Cl)cc(Cl)c4)ccc3F)CC2C)cc1 (stereo unspecified) | inconclusive: 35.5 µM [inhibitor, single point] | 
O=C(N/N=C/C(Cl)=C/c1ccc([N+](=O)[O-])cc1)C(=O)Nc1ccc(C(=O)O)cc1 | inconclusive: 35.5 µM [inhibitor, single point] | 
COc1ccc(-n2c3c(c(=O)[nH]c2=O)C(C(F)(F)F)(C(F)(F)F)N=C(CC(C)C)N3)cc1 |  | inactive: 0.674%
CCOC(=O)C1=C(C)OC(N)=C(C#N)C1c1c(C)nn(-c2ccccc2)c1Cl (stereo unspecified) |  | inactive: -0.818%
Cc1ccc(CNC(=O)c2cccc3c2C(=O)c2ccc(N4CCCCC4)cc2S3(=O)=O)cc1 | active: 22.4 µM | 
O=C(CN1CCN(c2ccc([N+](=O)[O-])cc2Cl)CC1)N1CCOCC1 | inconclusive: 5.01 µM [inhibitor, single point] | 
Cn1c(=O)c2cc(C(=O)NCCCN3CCN(c4cccc(Cl)c4)CC3)sc2c2ccccc21 |  | inactive: 1.35%

Three entries from above, set out differently.

| SMILES | Potency | activity, negative = active |
| --- | --- | --- |
| CCC12CCCN3CCc4c(n(c5ccccc45)C(O)(C(=O)OC)C1)C32 (stereo unspecified) | inconclusive: 11.2 µM [inhibitor, partial curve, poor fit] |  |
| COc1ccc(C2C(C#N)=C(N)N(N(C)C)C3=C2C(=O)CCC3)cc1 (stereo unspecified) | inconclusive: 20 µM [inhibitor, single point] |  |
| Cc1cc(SCC(=O)c2cccs2)nc2ccccc12 | active: 11.2 µM |  |

(further entries)

SMILES | Potency | activity, negative = active
CC(C)Cc1nn2c(N)c(/C=C3\C=Nc4ccccc43)c(=O)nc2s1 | inconclusive: 35.5 µM [inhibitor, single point] | 
CN(C(=O)CC1C(=O)NCCN1Cc1ccc2ccccc2c1)C1CCOCC1 (stereo unspecified) | inconclusive: 6.31 µM [inhibitor, single point] | 
CCCCCNC(=O)C(C#N)c1nc2ccccc2nc1N1CCCC1 (stereo unspecified) | active: 7.08 µM | 
COc1ccc(CCn2c(=N)c(C(=O)NC3CCCCC3)cc3c(=O)n4ccccc4nc32)cc1 | inconclusive: 35.5 µM [inhibitor, single point] | 
COc1ccc(CCNc2nc3ccccc3n3nnnc23)cc1OC | inconclusive: 3.16 µM [inhibitor, full curve, poor fit] | 
CCOC(=O)CNC(=O)CSc1nc(-c2ccc(C)cc2)ns1 | inconclusive: 2 µM [inhibitor, full curve, poor fit] | 
CCCN(CC1CC1)C(=S)NC(=O)c1ccc(S(=O)(=O)N2CCOCC2)cc1 | inconclusive: 3.16 µM [inhibitor, partial curve, poor fit] | 
Cc1ccc(Cc2cnc(N3C(=N)SC(C)C3=O)s2)cc1 (stereo unspecified) | inconclusive: 6.31 µM [inhibitor, single point] | 
COC(=O)[C@@]12CCCCN1[C@H](c1ccc(-c3ccc(Cl)c(Cl)c3)c(OC)c1)[C@@H]1C(=O)N(C)C(=O)[C@@H]12 |  | inactive: -2.96%
CCc1ccc2[nH]c(O)c(N=Nc3nc(-c4ccccc4)cs3)c2c1 | inconclusive: 35.5 µM [inhibitor, single point] | 
COc1ccc(CC(=O)Nc2ccc(-c3noc(-c4ccc(Cl)cc4)n3)cc2)cc1 | inconclusive: 22.4 µM [inhibitor, single point] | 
COc1ccc(NS(=O)(=O)c2cc(NC(=O)c3ccc(F)cc3)ccc2OC)cc1 |  | inactive: -0.575%
CCC(=O)N1CCc2cc(S(=O)(=O)NC(Cc3ccccc3)C(=O)Nc3nccs3)ccc21 (stereo unspecified) | inconclusive: 1.26 µM [inhibitor, full curve, poor fit] | 
CCOc1cc(/C=C2\N=C(C)OC2=O)cc(Cl)c1OCC(=O)OC |  | inactive: 3.82%
Nc1ccc2c3c(cccc13)C(=O)N(c1ccccc1)C2=O | inconclusive: 5.62 µM [inhibitor, partial curve, poor fit] | 
Cc1ccc(Nc2nc(Cl)c(C=O)s2)cc1 | inconclusive: 35.5 µM [inhibitor, single point] | 
Cc1cccc(Cn2nc(C)n3c(cc4cc(C)ccc43)c2=O)c1 |  | inactive: 3.48%
COc1ccc(Nc2nnc(SCC(=O)c3cc4ccccc4o3)s2)cc1 | inconclusive: 6.31 µM [inhibitor, single point] | 
CC(=O)c1cccc(S(=O)(=O)Nc2cccnc2)c1 |  | inactive: -11%
COc1cc(/C=C2\SC(=Nc3ccccc3)NC2=O)cc(Cl)c1O | inconclusive: 2.82 µM [inhibitor, full curve, poor fit] | 
COc1ccc(CCN2C(=O)CC(NC34CC5CC(CC(C5)C3)C4)C2=O)cc1OC (stereo unspecified) | inconclusive: 3.55 µM [inhibitor, partial curve, poor fit] | 
Cc1ccc(C(=O)NC(C)C(c2cccs2)N2CCCC2)s1 (stereo unspecified) | inconclusive: 5.62 µM [inhibitor, single point] | 
